Laboratory results: KR20150077887A
Results are given in words; binding and its absence hold for the method and conditions named. Some results given as binding are weak or reduced against the parent protein; the word gives no strength.

T1: NRS natively expressed in human cells (HeLa cell lysate) (human) (UniProt O43776)
T1 sequence (looked up): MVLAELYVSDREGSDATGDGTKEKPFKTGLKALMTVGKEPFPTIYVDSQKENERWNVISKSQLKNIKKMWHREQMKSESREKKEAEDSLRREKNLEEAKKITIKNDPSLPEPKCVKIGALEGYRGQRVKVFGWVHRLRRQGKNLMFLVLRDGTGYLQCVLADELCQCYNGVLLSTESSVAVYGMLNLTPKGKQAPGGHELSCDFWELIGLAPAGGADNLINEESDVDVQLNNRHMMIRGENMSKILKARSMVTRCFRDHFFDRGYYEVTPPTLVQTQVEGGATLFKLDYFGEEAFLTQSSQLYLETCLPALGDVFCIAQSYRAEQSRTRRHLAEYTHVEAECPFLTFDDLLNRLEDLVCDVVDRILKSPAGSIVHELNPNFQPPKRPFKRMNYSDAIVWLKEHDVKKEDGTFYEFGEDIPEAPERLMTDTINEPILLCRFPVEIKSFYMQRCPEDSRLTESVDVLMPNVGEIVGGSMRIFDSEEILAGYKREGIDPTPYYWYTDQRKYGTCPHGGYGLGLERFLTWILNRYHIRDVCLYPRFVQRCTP


Molecular target: T1, NRS natively expressed in human cells (HeLa cell lysate) (human)
Assay: western blot on HeLa cell lysate with periplasmic scFv (clones from phage panning on NRS), anti-HA-HRP detection

| Binder | binding |
| --- | --- |
| SEQ ID NO 28 (scFv) scFv: EVQLLESGGGLVQPGGSLRLSCAASGFTFSNYAMSWVRQAPGKGLEWVSWIYHGGGDTYYADSVKGRFTISRDNSKNTLYLQMNSLRAEDTAVYYCARGAKAPMSFDYWGQGTLVTVSSGGGGSGGGGPGGGGSQSVLTQPPSASGTPGRRVTISCSGSSSNIGNNSVSWYQQLPGTAPKLLIYANSHRPSGVPDRFSGSKSGTSASLAISGLRSEDEADYYCAAWDSSLSAYVFGGGTKLTVL | binds |
| SEQ ID NO 56 (scFv) scFv: EVQLLESGGGLVQPGGSLRLSCAASGFTFSNYAMSWVRQAPGKGLEWVSWIYHGGGDTYYADSVKGRFTISRDNSKNTLYLQMNSLRAEDTAVYYCARGAKAPMSFDYWGQGTLVTVSSGGGGSGGGGPGGGGSQSVLTQPPSASGTPGRRVTISCSGSSSNIGNNSVSWYQQLPGTAPKLLIYANSHRPSGVPDRFSGSKSGTSASLAISGLRSEDEADYYCAAWDSSLSAYVFGGGTKLTVL | binds |
